In all, about 320,000 compounds went through this assay and about 620 (0.19%) were called active. The shares of active, inactive and inconclusive entries below differ from those in the screen. No stated cut-off is given here; in the data, active means activation above about 80%; inconclusive means between about 30% and that limit; inactive means weaker than that.
Target: Transient receptor potential cation channel subfamily V member 1 (Homo sapiens) (UniProt Q8NER1)
Experiment: HTS Assay for Compounds that Act as Agonists of the Vanilloid Receptor 1; further: 0% is about no effect
Settings: TRPV1-expressing cells, Fluo-8 calcium influx, agonist mode; at 8.33 µM, hits give high values
Procedure, shortened: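 Cells expressing TRPV1 were dye-loaded with Fluo-8 and read kinetically: 10 s baseline, 3 min after compound (agonist portion), then 2 min after EC20 capsaicin (allosteric enhancer portion). Calcium-bound dye fluorescence at 480/520 nm.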

Amino acid sequences for entries named in this document (tags omitted).
UniProt Q8NER1, whole entry, looked up: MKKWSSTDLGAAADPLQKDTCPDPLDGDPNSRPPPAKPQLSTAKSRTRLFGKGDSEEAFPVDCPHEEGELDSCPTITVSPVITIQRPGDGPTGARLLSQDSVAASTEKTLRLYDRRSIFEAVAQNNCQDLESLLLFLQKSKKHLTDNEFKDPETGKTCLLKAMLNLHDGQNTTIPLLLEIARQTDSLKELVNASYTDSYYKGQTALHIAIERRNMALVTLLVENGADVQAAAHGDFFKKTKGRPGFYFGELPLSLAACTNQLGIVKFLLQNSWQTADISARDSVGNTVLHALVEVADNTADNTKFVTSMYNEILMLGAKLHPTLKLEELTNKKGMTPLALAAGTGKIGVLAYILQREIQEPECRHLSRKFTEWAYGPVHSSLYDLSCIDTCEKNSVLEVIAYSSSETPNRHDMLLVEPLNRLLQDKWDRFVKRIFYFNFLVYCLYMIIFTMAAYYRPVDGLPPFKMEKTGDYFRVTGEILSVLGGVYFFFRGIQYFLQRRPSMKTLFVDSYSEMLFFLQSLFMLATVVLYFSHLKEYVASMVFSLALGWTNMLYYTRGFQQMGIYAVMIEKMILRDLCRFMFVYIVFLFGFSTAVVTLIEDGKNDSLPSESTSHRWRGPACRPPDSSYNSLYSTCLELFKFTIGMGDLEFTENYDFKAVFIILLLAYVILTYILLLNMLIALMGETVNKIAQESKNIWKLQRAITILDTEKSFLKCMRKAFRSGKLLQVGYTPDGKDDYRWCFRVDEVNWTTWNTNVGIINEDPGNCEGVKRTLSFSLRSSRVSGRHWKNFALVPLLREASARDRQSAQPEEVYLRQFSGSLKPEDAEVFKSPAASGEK

Compound	activation
O=C(Nc1ccncc1)c1ccc2ccccc2c1	inconclusive: 77.9%
N#C/C(=C/c1ccc(N2CCOCC2)o1)C(=O)Nc1ccccc1	inconclusive: 49.8%
Oc1oc(-c2ccccc2)nc1C=NCc1ccccc1	inconclusive: 40.9%
COc1ccccc1N1CCN(Cc2nc3ccccc3[nH]2)CC1	inactive: 0.445%
O=C(Nc1ccnn1C1CCN(Cc2ccc3nonc3c2)CC1)c1cccc(F)c1	inactive: 1.91%
Cc1ccc(S(=O)(=O)N(CC(=O)NC2CCCC2)c2cccc(C)c2)cc1	inconclusive: 36.2%
OCCOCCNc1ncnc2sc(-c3ccccc3)cc12	inconclusive: 45.6%
COC(=O)CNC(c1ccccc1)c1cc(Br)ccc1NC(=O)CCN1CCOCC1 (centres undefined)	inconclusive: 45.9%
COc1ccc(CN2CCCC(C(=O)Nc3cccc(-n4cnnn4)c3)C2)c(C)c1C (centres undefined)	inconclusive: 40.1%
CCOC(=O)c1oc2ccccc2c1NC(=O)Cc1cccs1	inconclusive: 30.9%
CCN(CC)c1ccc(NC(=O)CCS(=O)(=O)c2ccc(Br)cc2)c(C)c1	inconclusive: 43.4%
C[C@@H]1CCC(=O)N(CC[C@H](Oc2ccccc2)c2ccccc2)CC1	inconclusive: 56.2%
Fc1ccc(Nc2ncnc3sccc23)cc1	inconclusive: 39.8%
O=C(NCc1nc2ccccc2[nH]1)C1=C[C@@H](C2CCCCC2)C[C@@H](OCCCCO)O1	inactive: 0.659%
O=C(CSc1cc(Cl)ccc1Cl)NCCCn1ccnc1	inactive: 14.9%
CC(NC(=O)Nc1ccc(Br)cc1)C(C)(C)C (centres undefined)	inconclusive: 43%
COc1ccc(-c2csc(NC(=O)Cc3ccccc3)n2)cc1OC	inconclusive: 40.2%
C=C1CCN([C@H](C(=O)OCc2ccc(C)cc2)C(C)C)S(=O)(=O)c2ccccc21	inactive: 20.5%
Cc1ccc(NC(=O)c2sc3nc(C)nc(N4CCN(c5ccccn5)CC4)c3c2C)c(C)c1	inactive: 9.33%
Cc1ccc(CNC(=S)N2CCOCC2)cc1	inconclusive: 44%
C/C(=N/Nc1nc(C)cc(-c2ccccc2)n1)c1ccco1	inactive: 4.36%
CCOC(=O)N1CCN(C(=O)c2ccccc2NC(C)=O)CC1	inconclusive: 35.4%
Cc1ccc(Sc2nnc(Cc3ccccc3)c3ccccc23)cc1	inconclusive: 65.8%
COc1ccc(OCC(=O)NC(=S)Nc2ccc3c4c(cccc24)CC3)cc1	inactive: 1.27%

Compound	activation
O=C1Nc2ccc(F)cc2C12Nc1ccccc1-c1nnc(SCc3ccccc3F)nc1O2 (centres undefined)	inactive: 1.41%
Cc1cc(C(=O)Nc2ccc3c(c2)OCO3)cs1	inconclusive: 45.3%
CCCCCn1c(=O)c(C(=O)OCC)c(Cl)c2ccccc21	inconclusive: 34.1%
CCN(CC)c1ccc(NC(=O)c2cncc(Br)c2)cc1	inconclusive: 64.7%
CCCOP(=O)(OCCC)C1(Nc2ccc(C)cc2)CCCCC1	inconclusive: 55.2%
COc1ccc(-c2nnc(SCc3ccc(C(=O)O)cc3)o2)cc1OC	inactive: -4.94%
CCOC(=O)c1c(NC(=S)Nc2ccccc2)sc2c1CC(C)(C)SC2	inactive: -3.65%
NS(=O)(=O)c1cccc(NC(=O)CSc2nn(-c3ccccc3)c(=S)s2)c1	inconclusive: 58.8%
O=C(Nc1ccc(F)cc1F)N1CCN(CCc2ccccc2)CC1	inconclusive: 30.1%
Cc1ccc(Nc2nc(N)c([N+](=O)[O-])c(N3CCC(C)CC3)n2)cc1C	inactive: 3%
CC1CCc2sc(C(=O)NC3CCN(Cc4ccccc4)CC3)cc2C1 (centres undefined)	inconclusive: 69.2%
CCCCCc1ccc(S(=O)(=O)NCCc2ccncc2)cc1	inconclusive: 43.9%
O=C(/C=C/c1ccco1)NC(=S)Nc1cc(C(F)(F)F)ccc1N1CCOCC1	inactive: 25.6%
O=C(Nc1ccc(C2SCCS2)cc1)c1ccccc1	active: 85.8%
Oc1cccc(C(=S)N2CCCCC2)c1	inactive: 0.631%
CC1CCN(C2=NC(=O)/C(=C/c3ccccc3F)S2)CC1	active: 88.2%
CC(C)(C)c1ccc(C(=O)NC(=S)N2CCCCCC2)cc1	inconclusive: 48.4%
Cc1ccc2cc(CCNC(=O)c3cccs3)c(=O)[nH]c2c1C	inactive: -2.79%
COc1ccc2nc(SCC(=O)NC3CCCCC3C)[nH]c2c1 (centres undefined)	inconclusive: 38.6%
O=C(Nc1cccc(Cl)c1)Nc1nc(-c2ccccc2)cs1	inconclusive: 62.8%
C=C1CSc2nc(=O)c3c(C)c(C)sc3n21	inactive: 0.523%
CCOc1ccccc1NC(=O)CN1CCC(NC(=O)Nc2ccccc2)CC1	inconclusive: 66.5%
CCOC(=O)/C(C#N)=C/c1ccc(N2CCCCC2)cc1	inconclusive: 73.5%
CC(C(=O)NC1CCCCCC1)c1ccc([N+](=O)[O-])cc1 (centres undefined)	inconclusive: 69.7%

Reprinted at random: 4 entries already listed
Compound	activation
COc1ccc(OCC(=O)NC(=S)Nc2ccc3c4c(cccc24)CC3)cc1	inactive: 1.27%
CCN(CC)c1ccc(NC(=O)c2cncc(Br)c2)cc1	inconclusive: 64.7%
Cc1ccc(NC(=O)c2sc3nc(C)nc(N4CCN(c5ccccn5)CC4)c3c2C)c(C)c1	inactive: 9.33%
CCOc1ccccc1NC(=O)CN1CCC(NC(=O)Nc2ccccc2)CC1	inconclusive: 66.5%

(more compounds)

Compound	activation
Cc1ccsc1/C=N/NC(=O)c1ccc([N+](=O)[O-])cc1	inconclusive: 37.3%
Cc1ccccc1NC(=O)c1ccc(NC(=O)C2CCCO2)cc1 (centres undefined)	inactive: 0.32%
CCCCNC(=O)COC(=O)c1c2c(nc3ccccc13)/C(=C/c1cccs1)CC2	inactive: 1.98%
COc1ccc(C(=O)Nc2cccc3c2CCCC3)cc1	inconclusive: 39.3%
O=[N+]([O-])c1ccc(C(O)CN2CCN(Cc3ccccc3)CC2)cc1 (centres undefined)	inactive: -1.53%
COc1ccc(Cl)cc1NC(=S)N(CCCN1CCOCC1)Cc1cn(C)c2ccccc12	inactive: 5.38%
O=C(CN1N=C(c2ccc(Cl)cc2)CCC1=O)NCc1cccnc1	inconclusive: 52.5%
Cc1ccc(NC2CCCN(C(=O)C3CCCCC3)C2)cc1C (centres undefined)	inconclusive: 78.7%
CCOC(=O)c1[nH]c2ccccc2c1NC(=O)CN1CCCCC1	inconclusive: 46%
CCCCC#Cc1ccc(C(=O)NNC(=O)Nc2ccccc2)o1	inactive: -0.997%
COc1ccccc1/C=C1\Cc2ccccc2C1=O	inconclusive: 42.2%
COc1ccc(C2CC(c3ccccc3)=NN2C(=O)CSc2ncn[nH]2)cc1 (centres undefined)	inconclusive: 42.4%
Cc1cccc2[nH]c3c(N4CCC5(CC4)OCCO5)ncnc3c12	inactive: 15.7%
CCc1cc(=O)[nH]c(SCC(=O)NCc2ccc3c(c2)OCO3)n1	inactive: -1.25%
CC(C)(C)c1cc(C(=O)NNC(=O)Nc2ccccc2)n(Cc2ccccc2)n1	inconclusive: 40.1%
COCCNC(=O)/C(C#N)=C/c1c(N2CCN(c3ccccc3)CC2)nc2c(C)cccn2c1=O	inconclusive: 38%
O=C(Nc1ccc(F)c(F)c1)C1CCCCC1	inconclusive: 45.9%
Cc1ccc(C(=O)OCC(=O)NCc2cccs2)cc1	inconclusive: 39.8%
CCn1c(-c2ccc3[nH]c(C)c(C)c3c2)n[nH]c1=S	inactive: 0.0109%
Cc1ccc(NC(=S)c2ccc(N(C)C)cc2)cc1	inconclusive: 40.5%
COc1ccc(-c2nc3cc(C)ccn3c2NC(=O)c2ccccc2OC)cc1	inconclusive: 43.2%
Cc1cc(/C=C(\C#N)C(=O)N2CCOCC2)c(C)n1C1CCCC1	inconclusive: 68.5%
Cc1cccc(-n2ncc(C(=O)NC3CCCC3)c2C2CCN(C(=O)OC(C)(C)C)CC2)c1	inconclusive: 67.3%
CCCCCCC(O)(c1ccccc1)C(CN1CCOCC1)c1ccccc1 (centres undefined)	inactive: 24.7%

Compound	activation
O=[N+]([O-])c1ccc(-c2cnc(SC(c3ccccc3)c3ccccc3)[nH]2)cc1	inactive: 0.723%
CCOC(=O)c1nc(-c2ccccc2)oc1N(C)C	inactive: 2.92%
Cc1cc(CNC(=S)Nc2ccc(Br)cc2Cl)nn1C	active: 94.4%
Cn1c2ccccc2c2ncn(CCC3=CCCCC3)c(=O)c21	inconclusive: 34.1%
CCOc1ccc(N=Nc2ccc(O)c3ncccc23)cc1	inactive: -0.796%
Cc1ccc(NC(=O)Nc2cccs2)cc1	inconclusive: 43.2%
COc1cc2c(cc1NC(=O)C(c1ccccc1)c1ccccc1)CCCC2	inconclusive: 63%
O=C(COc1ccc(C(=O)c2ccccc2)cc1)NC1CCCCCC1	inconclusive: 34.9%
CCCCC(=O)Nc1nc2c(s1)COc1ccccc1-2	active: 121%
CC(=O)Nc1ccc(CN2CCCC(C(=O)c3cccc(C(F)(F)F)c3)C2)cc1 (centres undefined)	inconclusive: 35.1%
O=C(Nc1cccc2ccccc12)c1cccc(F)c1	inconclusive: 49.7%
Cc1ccc(N2CC(C(=O)Nc3cc(C)ccc3F)CC2=O)cc1 (centres undefined)	inconclusive: 30.9%
CCC(=O)c1cc(F)c(N2CCN(C(=O)Cc3ccccc3)CC2)cc1C	active: 90.6%
COc1cc(C#Cc2c(-c3cncn3C)n(C)c3ccc(-c4ccc(OC)nc4)cc23)cc(OC)c1	inactive: -0.107%
COc1ccc(CN2CCN(Cc3cc4ccccc4o3)CC2CCO)cc1C (centres undefined)	inactive: -1.65%
CC1CN(CCOc2ccc([N+](=O)[O-])cc2)CC(C)O1 (centres undefined)	inactive: 2.73%
COc1ccc(-n2nc3c(N4CCC(C(=O)NCc5cccc(C)c5)CC4)nnc(C)c3c2C)cc1	inconclusive: 73.6%
COc1cc2ccccc2cc1C(=O)Nc1cc(C)ccn1	inconclusive: 40.2%
CCN(CC)S(=O)(=O)c1ccc(/C=C/C(=O)Nc2ccc(N3CCOCC3)cc2)cc1	active: 90%
CCN(CC)c1ccc2cc(C#N)c(=O)oc2c1	inactive: 11.2%
Cc1cc(Cl)ccc1OC(C)C(=O)OCC(=O)Nc1ccc2[nH]c(=O)[nH]c2c1 (centres undefined)	inconclusive: 63.9%
Cc1nc(-c2cccc(NC(=O)c3ccc(Br)o3)c2)cs1	inconclusive: 43.4%

From PubChem BioAssay AID540275 (National Center for Advancing Translational Sciences (NCATS), 2011)
